Experimental data reported in paper PMC7819943, “Rice protein-binding microarrays: a tool to detect cis-acting elements near promoter regions in rice”.
This is one part of the list.

Protein sequences, listed by entry. Tags and fused reporters are not part of them.
UniProt Q0JBA9, entry or part of it: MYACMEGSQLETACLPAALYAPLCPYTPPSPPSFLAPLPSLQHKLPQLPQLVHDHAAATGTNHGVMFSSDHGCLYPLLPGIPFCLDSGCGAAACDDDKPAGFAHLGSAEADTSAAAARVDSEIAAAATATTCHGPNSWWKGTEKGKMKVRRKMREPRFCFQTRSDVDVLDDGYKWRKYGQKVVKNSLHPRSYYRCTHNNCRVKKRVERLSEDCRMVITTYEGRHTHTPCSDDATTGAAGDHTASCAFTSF

Each sequence was assayed against OsWRKY34 (Oryza sativa, UniProt Q0JBA9 1-250) (assay: protein-binding microarray (RPBM); PBS, 2% BSA, 51.3 ng/ul salmon testes DNA, 50 uM zinc acetate, 200 nM TF, 25 C, 1 h; high values mean tight binding). Conditions: protein: recombinant; tags: N-terminal polyhistidine and DsRed monomer fusion (pET32a); label: CyDye5-dUTP incorporated in the synthesized complementary strand; 3' TTTTT single-stranded linker to array surface; dsDNA, one strand shown.
Method in brief: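 The binding signal is fluorescence intensity per array feature (arbitrary units). Readings came from an Axon 4000B scanner after a washed, 2% BSA-blocked, double-stranded custom Agilent array had been incubated for 1 h at 25 °C with 200 nM protein and 50 µM zinc acetate. The protein was a Ni–NTA-purified transcription factor fused N-terminally to polyhistidine and DsRed, expressed in E. coli BL21-CodonPlus.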

Sequence | binding signal
GCAGTTAGCTAACACCTTCTGCCCTGACTATCATAGCCACCGGAGTCACCTAGTGCAG | 9040 fluorescence intensity (a.u.)
TCATATGCTGTAATTCTTTTTTTTTTTTTGTTATAAGTCACGGAGTCACCTAGTGCAG | 8190 fluorescence intensity (a.u.)
ATTCTCCATTTTGATATTGAGCTCAACTTTGATTGGATTGCGGAGTCACCTAGTGCAG | 9990 fluorescence intensity (a.u.)
TACTTAAATAGTTTGATCCTCTTGTCTATTTCTTGCGTTTCGGAGTCACCTAGTGCAG | 8060 fluorescence intensity (a.u.)
CACCCTGCTATCTCCATCTCCTCCACCGTTGCATCTTACCCGGAGTCACCTAGTGCAG | 10100 fluorescence intensity (a.u.)
GCGTCCAGTTTTGTTTCTTGATACTCTCTCTCTACAAAATCGGAGTCACCTAGTGCAG | 9580 fluorescence intensity (a.u.)
AAATCACCTATACCGTGTCTAATCCATCACCCACGCAATCCGGAGTCACCTAGTGCAG | 9010 fluorescence intensity (a.u.)
CCAACTAAAGCACGCCTTGCCATTGGTTGACTCTGCACCTCGGAGTCACCTAGTGCAG | 8340 fluorescence intensity (a.u.)
CTCTCCTGTCCTCGAGCGGTTGGTTGATCGATCGATCAGCCGGAGTCACCTAGTGCAG | 9480 fluorescence intensity (a.u.)
ATCGTTTTCTGTCTCTTACGTGTACCTTTCAATACCCATCCGGAGTCACCTAGTGCAG | 8640 fluorescence intensity (a.u.)
CCACCTCCTACGCAACCCACTGCACACTGCAATTTTTTTACGGAGTCACCTAGTGCAG | 9420 fluorescence intensity (a.u.)
AGTGTTGACCAGCTTTGACCACCTTACCCAACTCCTTGTGCGGAGTCACCTAGTGCAG | 17200 fluorescence intensity (a.u.)
GTGAACGGTTTGAATGAATTTATGGGCGAATATTTCTGGTCGGAGTCACCTAGTGCAG | 8050 fluorescence intensity (a.u.)
CCTCTCTTAACACTGCACACTGCCAACTTATCCATCAATTCGGAGTCACCTAGTGCAG | 10800 fluorescence intensity (a.u.)
TTTGCTTGTAACGTTTGACCACTCGTCTTATTCAAAGTTTCGGAGTCACCTAGTGCAG | 10700 fluorescence intensity (a.u.)
CTTGGTGTCCTCCTCTCAGTTGCTCTACTCTCGATTTCCACGGAGTCACCTAGTGCAG | 8440 fluorescence intensity (a.u.)
CTTAAAGCAGTTTGACTTTGACCAAAGTCAAAACGTCTTACGGAGTCACCTAGTGCAG | 15400 fluorescence intensity (a.u.)
ACGCCTCACCTCACCTCACCTCACCGCCGTCTCCTTCCTCCGGAGTCACCTAGTGCAG | 8940 fluorescence intensity (a.u.)
AAATTTCACTTTGGATCACCTTTTATTACTAGTGTTTTACCGGAGTCACCTAGTGCAG | 8330 fluorescence intensity (a.u.)
CCGCTTCTTTTTCTTAACTTTTGGGCCCGCTCTTTTCTTACGGAGTCACCTAGTGCAG | 8790 fluorescence intensity (a.u.)
TTTTGCCACGAGCTCGCTCAAACTCACACACACGCTAATCCGGAGTCACCTAGTGCAG | 9170 fluorescence intensity (a.u.)

Sequence | binding signal
GGTGGGGACCTGGTGGTGGTTAGGCCGGTGTGCGCGACGGCGGAGTCACCTAGTGCAG | 10000 fluorescence intensity (a.u.)
ATGTCGTCCGCCACCGCCGCCGCCACCGCCACCATCGCCGCGGAGTCACCTAGTGCAG | 8680 fluorescence intensity (a.u.)
AGACCGCTCGATCGTCCCGTCCGGCCTCGGCAGTTGCACTCGGAGTCACCTAGTGCAG | 9710 fluorescence intensity (a.u.)
ATGGCTGAATCTGTACAAGTGTCGTGAGGTGGAAAATTTCCGGAGTCACCTAGTGCAG | 8930 fluorescence intensity (a.u.)
CTTACAATTAACACTACTGTCTATGTCTCAATTCATACTACGGAGTCACCTAGTGCAG | 8710 fluorescence intensity (a.u.)
TACTACTACTACTCGGATCACTCGCGCGCCCGTCCGCTTCCGGAGTCACCTAGTGCAG | 9990 fluorescence intensity (a.u.)
GGCCGAGCAGGTCTCCCGCGCCTTCGACATCCCTCTGCCACGGAGTCACCTAGTGCAG | 8600 fluorescence intensity (a.u.)
GTCTGTATAGTTTACTACTTCTCTATTTAACAAAATTGGTCGGAGTCACCTAGTGCAG | 9160 fluorescence intensity (a.u.)
AAATCGGCGCACCACCACCGCCCCGCCGTCCACGAATCGACGGAGTCACCTAGTGCAG | 8150 fluorescence intensity (a.u.)
ATTCTTTTTCATAATTATGTAACCTTGATGCTTCCCTGACCGGAGTCACCTAGTGCAG | 8160 fluorescence intensity (a.u.)
TTTGAAACGAGCAATGTCTAATGTCAACTACTCTCTTATTCGGAGTCACCTAGTGCAG | 8120 fluorescence intensity (a.u.)
TTCCCTGCTGTCGTTGCTCTTATCCTATCCTACGTTTGTTCGGAGTCACCTAGTGCAG | 8270 fluorescence intensity (a.u.)
ACAGTTTGTTCAGGGTACCCGGCTACCCGCCTTCTAACTACGGAGTCACCTAGTGCAG | 8080 fluorescence intensity (a.u.)
GTGTAGGAGTAGTTAGGGTTGTTGCTTGTTGGAGGGAAAACGGAGTCACCTAGTGCAG | 9460 fluorescence intensity (a.u.)
TTTTGATATACTTGATCTCCTCTTTCCATTTTTATCAAAACGGAGTCACCTAGTGCAG | 10300 fluorescence intensity (a.u.)
TATTTTTTACCTGAAGTTGTCATTCTCCTGCCGTGTGTTTCGGAGTCACCTAGTGCAG | 14500 fluorescence intensity (a.u.)
AAGGATGATAGGTATATTGGGATGGAGGTAGTAGTATAGTCGGAGTCACCTAGTGCAG | 10700 fluorescence intensity (a.u.)
ATGCCATGTCCTCGTCCTAGGTGAAACAGCCACATCATCTCGGAGTCACCTAGTGCAG | 10700 fluorescence intensity (a.u.)
ACCCCAATAATTGCTGTTCCAAGCCCCAAAAAAAAACACTCGGAGTCACCTAGTGCAG | 8320 fluorescence intensity (a.u.)
GTTTCTTACCCATCTACTATGGCCTATTTAACCCTGCGCCCGGAGTCACCTAGTGCAG | 11000 fluorescence intensity (a.u.)
CTCTCTTATTCTTCTCTTCGACCGTTTCTTCGCCGACAAGCGGAGTCACCTAGTGCAG | 10100 fluorescence intensity (a.u.)

Single values from the list.
binding signal, CTCTCTTATTCTTCTCTTCGACCGTTTCTTCGCCGACAAGCGGAGTCACCTAGTGCAG is entered as 10100 fluorescence intensity (a.u.)
binding signal, ATGGCTGAATCTGTACAAGTGTCGTGAGGTGGAAAATTTCCGGAGTCACCTAGTGCAG is entered as 8930 fluorescence intensity (a.u.)
